Assay results published in PubChem BioAssay AID602296 (Broad Institute, 2012).
Among all 2,000 compounds or so, about 190 (9.5%) were called active.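 How the source made its calls: active means fitted activation curve crossing 40% at a concentration no higher than the sample's top valid tested dose; inconclusive means flat fitted curve at 30% to 70% activation, or poor curve fit; inactive means signal decrease, flat curve within 30%, or the rest.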 The inconclusive results got no clear call from the source.

Test: HSF-1 reporter activators over prolonged exposure, confirmation, cell-based, mouse, luciferase, cherry-pick, dose (AID 602296);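 further: test compounds applied by themselves with no MG132 co-treatment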
Settings: NIH3T3-HGL HSF-1 response element luciferase, 48 h; at 26 µM (top of the series)
With O=C1NC(=S)NC(=O)C1=Cc1cccn1-c1ccc(O)cc1 the activation was inconclusive: -101%.
With Cc1ccc(N2C(=O)NC(=O)/C(=C\C=C\c3ccco3)C2=O)cc1C the activation was inconclusive: 231%.
In the case of COc1cc2c(cc1/C=C/[N+](=O)[O-])OCO2, the activation is reported as inconclusive: -86.5%.
In the case of S=C1CN=C(c2ccccc2)c2cc(Cl)ccc2N1, the activation is reported as inconclusive: 41%.
For COc1cc2c(cc1OC)CN(c1ccc([N+](=O)[O-])c(C(F)(F)F)c1)CC2, the activation was inconclusive: 106%.
